Assay results: paper PMC2634843

Sequences of proteins named here, by UniProt entry; tags and fusion partners are left off.
UniProt P78527: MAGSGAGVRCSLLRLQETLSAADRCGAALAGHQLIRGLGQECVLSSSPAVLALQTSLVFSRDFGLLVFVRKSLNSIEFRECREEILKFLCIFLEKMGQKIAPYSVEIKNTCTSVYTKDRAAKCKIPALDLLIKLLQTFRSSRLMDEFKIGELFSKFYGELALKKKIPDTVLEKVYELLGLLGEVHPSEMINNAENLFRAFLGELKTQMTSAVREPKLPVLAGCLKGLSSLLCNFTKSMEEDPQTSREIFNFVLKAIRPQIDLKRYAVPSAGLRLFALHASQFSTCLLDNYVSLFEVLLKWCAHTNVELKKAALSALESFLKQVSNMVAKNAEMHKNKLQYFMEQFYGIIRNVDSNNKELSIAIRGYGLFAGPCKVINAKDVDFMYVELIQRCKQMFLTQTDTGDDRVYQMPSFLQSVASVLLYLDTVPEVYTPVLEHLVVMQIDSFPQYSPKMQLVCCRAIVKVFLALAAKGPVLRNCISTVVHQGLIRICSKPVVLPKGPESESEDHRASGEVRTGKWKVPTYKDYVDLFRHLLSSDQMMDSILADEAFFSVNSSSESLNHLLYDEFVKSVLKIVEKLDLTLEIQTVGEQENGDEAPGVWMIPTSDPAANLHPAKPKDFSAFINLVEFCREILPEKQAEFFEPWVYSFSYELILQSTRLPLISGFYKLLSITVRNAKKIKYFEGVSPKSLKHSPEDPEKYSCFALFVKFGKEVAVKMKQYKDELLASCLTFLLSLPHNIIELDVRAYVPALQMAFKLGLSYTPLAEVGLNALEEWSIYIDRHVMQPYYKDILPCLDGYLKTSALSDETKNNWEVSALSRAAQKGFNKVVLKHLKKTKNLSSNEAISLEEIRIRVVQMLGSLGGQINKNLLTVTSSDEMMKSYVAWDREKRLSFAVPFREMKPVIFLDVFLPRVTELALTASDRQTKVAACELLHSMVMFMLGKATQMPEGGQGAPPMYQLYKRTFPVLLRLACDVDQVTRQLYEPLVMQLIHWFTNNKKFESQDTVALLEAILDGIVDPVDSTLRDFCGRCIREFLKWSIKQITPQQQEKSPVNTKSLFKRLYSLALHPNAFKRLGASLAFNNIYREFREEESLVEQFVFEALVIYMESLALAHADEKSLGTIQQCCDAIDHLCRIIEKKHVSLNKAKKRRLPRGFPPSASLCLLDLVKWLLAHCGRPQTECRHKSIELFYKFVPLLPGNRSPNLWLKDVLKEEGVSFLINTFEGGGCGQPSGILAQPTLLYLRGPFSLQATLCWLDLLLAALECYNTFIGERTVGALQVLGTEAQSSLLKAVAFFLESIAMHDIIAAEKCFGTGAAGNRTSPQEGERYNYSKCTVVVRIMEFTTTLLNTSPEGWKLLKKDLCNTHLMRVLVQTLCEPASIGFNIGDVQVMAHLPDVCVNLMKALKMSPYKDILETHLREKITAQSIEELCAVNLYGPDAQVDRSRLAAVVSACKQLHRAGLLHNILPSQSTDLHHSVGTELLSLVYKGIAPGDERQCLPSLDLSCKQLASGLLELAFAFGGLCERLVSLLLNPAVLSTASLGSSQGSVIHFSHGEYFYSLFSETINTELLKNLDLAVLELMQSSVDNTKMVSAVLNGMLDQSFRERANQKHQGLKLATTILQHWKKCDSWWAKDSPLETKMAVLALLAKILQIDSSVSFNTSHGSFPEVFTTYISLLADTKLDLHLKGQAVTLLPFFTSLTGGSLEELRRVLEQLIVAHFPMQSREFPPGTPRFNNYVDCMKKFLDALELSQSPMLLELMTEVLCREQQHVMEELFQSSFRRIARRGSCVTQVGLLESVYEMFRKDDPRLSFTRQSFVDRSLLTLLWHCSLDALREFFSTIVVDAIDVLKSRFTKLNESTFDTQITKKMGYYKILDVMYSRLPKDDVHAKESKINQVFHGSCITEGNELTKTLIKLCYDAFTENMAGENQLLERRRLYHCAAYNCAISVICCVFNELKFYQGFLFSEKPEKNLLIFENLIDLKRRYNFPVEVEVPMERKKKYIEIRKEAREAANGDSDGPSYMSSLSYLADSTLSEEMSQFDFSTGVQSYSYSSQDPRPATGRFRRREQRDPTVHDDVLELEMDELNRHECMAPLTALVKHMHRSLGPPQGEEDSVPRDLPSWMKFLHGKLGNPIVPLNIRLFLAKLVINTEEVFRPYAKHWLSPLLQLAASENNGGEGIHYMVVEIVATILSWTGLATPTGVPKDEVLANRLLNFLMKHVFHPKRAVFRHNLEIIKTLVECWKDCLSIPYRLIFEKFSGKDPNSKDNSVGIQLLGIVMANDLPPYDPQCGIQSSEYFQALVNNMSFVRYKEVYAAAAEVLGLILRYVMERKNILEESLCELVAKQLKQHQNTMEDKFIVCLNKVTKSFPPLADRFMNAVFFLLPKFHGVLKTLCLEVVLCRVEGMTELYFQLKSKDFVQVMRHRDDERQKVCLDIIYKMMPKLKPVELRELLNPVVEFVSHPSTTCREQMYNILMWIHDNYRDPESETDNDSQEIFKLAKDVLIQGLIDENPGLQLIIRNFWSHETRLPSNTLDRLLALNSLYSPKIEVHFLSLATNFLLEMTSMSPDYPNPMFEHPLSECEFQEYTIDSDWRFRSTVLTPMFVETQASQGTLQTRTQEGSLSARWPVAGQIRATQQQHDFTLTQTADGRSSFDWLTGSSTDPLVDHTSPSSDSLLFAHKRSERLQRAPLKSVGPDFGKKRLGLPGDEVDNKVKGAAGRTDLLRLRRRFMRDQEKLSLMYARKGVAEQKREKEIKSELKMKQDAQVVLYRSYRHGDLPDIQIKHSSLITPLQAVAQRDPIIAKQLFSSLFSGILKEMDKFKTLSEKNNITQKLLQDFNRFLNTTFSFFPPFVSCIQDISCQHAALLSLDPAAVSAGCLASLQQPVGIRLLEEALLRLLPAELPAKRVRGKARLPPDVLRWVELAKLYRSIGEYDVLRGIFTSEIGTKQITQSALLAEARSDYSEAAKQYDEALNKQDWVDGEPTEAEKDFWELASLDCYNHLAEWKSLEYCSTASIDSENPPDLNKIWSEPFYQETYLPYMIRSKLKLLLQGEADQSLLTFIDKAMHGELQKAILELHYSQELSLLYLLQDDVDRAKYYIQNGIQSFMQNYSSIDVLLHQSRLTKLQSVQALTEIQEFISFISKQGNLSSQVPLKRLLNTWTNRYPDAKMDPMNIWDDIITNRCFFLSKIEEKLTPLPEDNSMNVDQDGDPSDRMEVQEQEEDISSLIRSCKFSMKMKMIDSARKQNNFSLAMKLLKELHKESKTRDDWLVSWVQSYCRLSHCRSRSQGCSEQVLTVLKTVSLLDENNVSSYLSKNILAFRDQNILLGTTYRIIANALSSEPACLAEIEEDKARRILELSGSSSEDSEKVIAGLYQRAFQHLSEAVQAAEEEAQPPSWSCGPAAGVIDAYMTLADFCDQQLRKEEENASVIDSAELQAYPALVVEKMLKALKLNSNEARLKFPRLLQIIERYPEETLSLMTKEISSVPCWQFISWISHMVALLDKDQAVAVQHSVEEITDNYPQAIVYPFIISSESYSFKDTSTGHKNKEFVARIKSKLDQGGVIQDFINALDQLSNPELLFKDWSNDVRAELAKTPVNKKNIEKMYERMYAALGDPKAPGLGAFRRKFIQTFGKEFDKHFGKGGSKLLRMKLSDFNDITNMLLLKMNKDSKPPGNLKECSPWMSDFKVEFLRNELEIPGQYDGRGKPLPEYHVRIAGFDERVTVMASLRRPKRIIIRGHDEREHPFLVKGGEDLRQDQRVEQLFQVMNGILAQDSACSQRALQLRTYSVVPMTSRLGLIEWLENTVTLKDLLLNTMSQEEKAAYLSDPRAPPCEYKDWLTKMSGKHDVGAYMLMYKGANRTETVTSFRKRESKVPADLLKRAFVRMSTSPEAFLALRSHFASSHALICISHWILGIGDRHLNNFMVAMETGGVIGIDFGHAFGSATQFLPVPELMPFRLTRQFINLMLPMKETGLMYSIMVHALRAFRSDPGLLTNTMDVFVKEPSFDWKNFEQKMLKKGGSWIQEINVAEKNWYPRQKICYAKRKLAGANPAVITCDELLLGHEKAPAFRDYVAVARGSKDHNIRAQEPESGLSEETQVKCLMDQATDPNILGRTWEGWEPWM

T1: FLAG-tagged PP6R1 (human) (UniProt Q9UPN7)
T1 sequence: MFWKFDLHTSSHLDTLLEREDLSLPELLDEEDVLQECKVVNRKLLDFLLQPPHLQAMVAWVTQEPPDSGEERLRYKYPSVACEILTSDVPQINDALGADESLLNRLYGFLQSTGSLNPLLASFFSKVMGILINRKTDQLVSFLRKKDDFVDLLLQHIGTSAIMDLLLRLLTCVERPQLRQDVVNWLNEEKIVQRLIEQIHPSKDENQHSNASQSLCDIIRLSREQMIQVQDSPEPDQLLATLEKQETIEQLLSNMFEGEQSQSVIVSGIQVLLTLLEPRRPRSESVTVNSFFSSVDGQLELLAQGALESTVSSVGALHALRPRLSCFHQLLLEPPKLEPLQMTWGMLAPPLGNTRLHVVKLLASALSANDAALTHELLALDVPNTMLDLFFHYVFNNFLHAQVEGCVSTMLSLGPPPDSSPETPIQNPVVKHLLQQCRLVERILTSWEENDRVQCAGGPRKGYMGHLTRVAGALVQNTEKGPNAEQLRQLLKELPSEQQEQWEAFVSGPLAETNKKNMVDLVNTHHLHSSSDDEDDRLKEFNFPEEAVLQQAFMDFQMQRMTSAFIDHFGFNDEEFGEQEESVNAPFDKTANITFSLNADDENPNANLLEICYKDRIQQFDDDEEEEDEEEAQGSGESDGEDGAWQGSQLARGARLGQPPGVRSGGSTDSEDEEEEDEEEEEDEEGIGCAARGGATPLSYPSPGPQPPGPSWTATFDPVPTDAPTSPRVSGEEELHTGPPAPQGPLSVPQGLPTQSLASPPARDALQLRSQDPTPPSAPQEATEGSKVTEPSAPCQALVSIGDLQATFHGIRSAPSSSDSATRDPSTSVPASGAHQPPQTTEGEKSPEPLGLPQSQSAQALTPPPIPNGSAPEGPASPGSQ

B1: PP6c (enzyme, UniProt O00743 1-305)
chain: MAPLDLDKYVEIARLCKYLPENDLKRLCDYVCDLLLEESNVQPVSTPVTVCGDIHGQFYDLCELFRTGGQVPDTNYIFMGDFVDRGYYSLETFTYLLALKAKWPDRITLLRGNHESRQITQVYGFYDECQTKYGNANAWRYCTKVFDMLTVAALIDEQILCVHGGLSPDIKTLDQIRTIERNQEIPHKGAFCDLVWSDPEDVDTWAISPRGAGWLFGAKVTNEFVHINNLKLICRAHQLVHEGYKFMFDEKLVTVWSAPNYCYRCGNIASIMVFKDVNTREPKLFRAVPDSERVIPPRTTTPYFL

Target: T1, FLAG-tagged PP6R1 (human)
Test: affinity purification with mass spectrometry; immunoprecipitates from a stable 293 cell line expressing low levels of FLAG-tagged PP6R1, analysed by mass spectroscopy

Molecule	binding
DNA-PKcs (DNA-PK catalytic subunit) (from UniProt P78527 1-4128) (enzyme)	binds
B1	binds

These are yes or no findings as the source states them, for the method shown. Binding seen in cells or lysates may run through a third protein. Here binding means that the protein was enriched with, or labelled near, the bait; the list need not be complete. Sequences can lack the tags named with a protein.
